The other results are listed elsewhere or left out.
These targets were tested with COc1ccc(Cn2ccc3ccc(C(=O)NO)cc32)cc1 (assay: dose-dependent thermal stabilisation call (2D-TPP, DLPTP, 10% FDR) (binary (1 = stabilised)); higher = stabilised by the compound). Conditions: system: HL-60 intact cells; concentration range 0.04-10 µM.

The chains behind the UniProt entries cited, without tags or fusion partners. Where a name states a change or a piece, a line headed by the entry shows the natural chain unless it says otherwise.
UniProt O94788: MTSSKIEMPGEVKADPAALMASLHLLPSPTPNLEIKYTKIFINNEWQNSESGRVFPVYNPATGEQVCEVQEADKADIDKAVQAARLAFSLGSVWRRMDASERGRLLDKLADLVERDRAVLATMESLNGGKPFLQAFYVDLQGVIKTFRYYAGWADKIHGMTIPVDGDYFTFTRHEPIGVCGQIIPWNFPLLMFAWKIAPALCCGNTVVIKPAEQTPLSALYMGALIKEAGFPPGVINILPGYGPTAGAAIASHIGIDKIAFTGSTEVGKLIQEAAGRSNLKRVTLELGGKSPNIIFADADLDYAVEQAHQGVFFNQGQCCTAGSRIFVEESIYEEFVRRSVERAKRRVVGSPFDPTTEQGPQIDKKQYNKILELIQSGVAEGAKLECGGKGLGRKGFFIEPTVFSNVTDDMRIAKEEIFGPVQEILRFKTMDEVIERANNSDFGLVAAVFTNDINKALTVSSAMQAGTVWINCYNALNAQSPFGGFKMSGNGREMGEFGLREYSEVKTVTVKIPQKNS
UniProt Q9UKA4: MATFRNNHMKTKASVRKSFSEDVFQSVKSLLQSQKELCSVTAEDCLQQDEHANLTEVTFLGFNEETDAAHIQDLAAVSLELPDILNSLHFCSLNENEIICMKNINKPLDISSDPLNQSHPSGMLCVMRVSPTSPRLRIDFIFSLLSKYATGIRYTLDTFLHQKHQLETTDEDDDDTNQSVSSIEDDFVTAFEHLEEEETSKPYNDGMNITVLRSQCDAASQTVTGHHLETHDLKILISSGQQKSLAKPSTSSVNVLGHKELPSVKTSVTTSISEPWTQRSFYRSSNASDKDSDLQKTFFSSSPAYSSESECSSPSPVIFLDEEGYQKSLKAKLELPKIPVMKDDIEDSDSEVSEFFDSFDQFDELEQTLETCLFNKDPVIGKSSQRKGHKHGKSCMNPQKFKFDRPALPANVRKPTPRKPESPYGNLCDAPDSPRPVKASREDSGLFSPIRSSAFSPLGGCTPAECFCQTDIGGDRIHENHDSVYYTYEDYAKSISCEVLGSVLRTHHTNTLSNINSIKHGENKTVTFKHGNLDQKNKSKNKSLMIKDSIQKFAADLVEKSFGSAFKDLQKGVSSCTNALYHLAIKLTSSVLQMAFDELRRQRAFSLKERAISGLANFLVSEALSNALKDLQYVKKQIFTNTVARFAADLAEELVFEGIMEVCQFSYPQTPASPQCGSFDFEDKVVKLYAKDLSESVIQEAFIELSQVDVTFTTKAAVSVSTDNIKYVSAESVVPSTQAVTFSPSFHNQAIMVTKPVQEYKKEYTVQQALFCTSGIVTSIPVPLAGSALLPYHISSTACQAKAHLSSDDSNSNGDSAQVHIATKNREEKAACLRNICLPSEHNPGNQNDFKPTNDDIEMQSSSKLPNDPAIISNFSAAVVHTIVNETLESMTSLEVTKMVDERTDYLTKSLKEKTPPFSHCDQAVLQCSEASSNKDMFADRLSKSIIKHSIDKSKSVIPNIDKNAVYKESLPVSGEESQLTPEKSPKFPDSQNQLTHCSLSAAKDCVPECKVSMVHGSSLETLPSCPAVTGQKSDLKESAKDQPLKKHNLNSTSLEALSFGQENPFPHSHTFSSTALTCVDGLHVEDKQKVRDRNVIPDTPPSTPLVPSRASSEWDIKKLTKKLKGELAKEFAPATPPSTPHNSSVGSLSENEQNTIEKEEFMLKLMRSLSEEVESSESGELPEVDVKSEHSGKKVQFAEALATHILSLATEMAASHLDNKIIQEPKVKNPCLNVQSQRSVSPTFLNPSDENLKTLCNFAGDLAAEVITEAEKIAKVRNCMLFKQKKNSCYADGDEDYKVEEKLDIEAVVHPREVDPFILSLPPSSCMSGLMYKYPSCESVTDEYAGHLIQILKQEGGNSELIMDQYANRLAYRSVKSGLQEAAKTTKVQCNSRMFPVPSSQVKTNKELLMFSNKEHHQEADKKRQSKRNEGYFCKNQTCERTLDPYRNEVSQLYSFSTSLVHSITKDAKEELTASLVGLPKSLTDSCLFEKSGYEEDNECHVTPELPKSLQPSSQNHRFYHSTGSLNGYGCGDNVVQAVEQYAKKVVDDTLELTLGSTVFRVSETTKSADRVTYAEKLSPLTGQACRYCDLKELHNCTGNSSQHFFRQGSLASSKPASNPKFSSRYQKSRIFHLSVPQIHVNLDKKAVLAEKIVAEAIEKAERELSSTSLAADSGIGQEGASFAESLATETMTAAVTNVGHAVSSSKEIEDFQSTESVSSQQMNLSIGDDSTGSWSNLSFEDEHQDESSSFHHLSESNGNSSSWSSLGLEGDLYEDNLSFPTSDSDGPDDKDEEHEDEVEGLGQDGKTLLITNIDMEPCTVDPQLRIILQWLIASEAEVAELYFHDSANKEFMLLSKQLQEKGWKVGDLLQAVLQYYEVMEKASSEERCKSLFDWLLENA
UniProt P53365: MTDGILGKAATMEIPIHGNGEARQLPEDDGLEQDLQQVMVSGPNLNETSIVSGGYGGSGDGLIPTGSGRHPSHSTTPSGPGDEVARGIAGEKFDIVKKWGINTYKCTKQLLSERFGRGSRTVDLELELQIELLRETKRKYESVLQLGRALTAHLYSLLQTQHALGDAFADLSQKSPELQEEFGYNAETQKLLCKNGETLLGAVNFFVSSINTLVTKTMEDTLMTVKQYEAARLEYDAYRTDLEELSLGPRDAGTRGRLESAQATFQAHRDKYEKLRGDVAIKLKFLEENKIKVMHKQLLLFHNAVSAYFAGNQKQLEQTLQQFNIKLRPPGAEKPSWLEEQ
UniProt Q9Y2Y0: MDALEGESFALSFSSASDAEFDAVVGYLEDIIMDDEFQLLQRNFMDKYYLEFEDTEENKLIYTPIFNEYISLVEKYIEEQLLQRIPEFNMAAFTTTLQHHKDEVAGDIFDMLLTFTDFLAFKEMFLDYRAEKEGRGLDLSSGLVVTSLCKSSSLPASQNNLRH
UniProt Q6RW13: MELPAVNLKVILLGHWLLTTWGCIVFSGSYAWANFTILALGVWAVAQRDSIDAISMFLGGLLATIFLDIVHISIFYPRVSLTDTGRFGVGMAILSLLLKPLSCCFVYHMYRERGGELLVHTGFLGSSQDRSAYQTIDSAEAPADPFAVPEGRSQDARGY
UniProt Q86XL3: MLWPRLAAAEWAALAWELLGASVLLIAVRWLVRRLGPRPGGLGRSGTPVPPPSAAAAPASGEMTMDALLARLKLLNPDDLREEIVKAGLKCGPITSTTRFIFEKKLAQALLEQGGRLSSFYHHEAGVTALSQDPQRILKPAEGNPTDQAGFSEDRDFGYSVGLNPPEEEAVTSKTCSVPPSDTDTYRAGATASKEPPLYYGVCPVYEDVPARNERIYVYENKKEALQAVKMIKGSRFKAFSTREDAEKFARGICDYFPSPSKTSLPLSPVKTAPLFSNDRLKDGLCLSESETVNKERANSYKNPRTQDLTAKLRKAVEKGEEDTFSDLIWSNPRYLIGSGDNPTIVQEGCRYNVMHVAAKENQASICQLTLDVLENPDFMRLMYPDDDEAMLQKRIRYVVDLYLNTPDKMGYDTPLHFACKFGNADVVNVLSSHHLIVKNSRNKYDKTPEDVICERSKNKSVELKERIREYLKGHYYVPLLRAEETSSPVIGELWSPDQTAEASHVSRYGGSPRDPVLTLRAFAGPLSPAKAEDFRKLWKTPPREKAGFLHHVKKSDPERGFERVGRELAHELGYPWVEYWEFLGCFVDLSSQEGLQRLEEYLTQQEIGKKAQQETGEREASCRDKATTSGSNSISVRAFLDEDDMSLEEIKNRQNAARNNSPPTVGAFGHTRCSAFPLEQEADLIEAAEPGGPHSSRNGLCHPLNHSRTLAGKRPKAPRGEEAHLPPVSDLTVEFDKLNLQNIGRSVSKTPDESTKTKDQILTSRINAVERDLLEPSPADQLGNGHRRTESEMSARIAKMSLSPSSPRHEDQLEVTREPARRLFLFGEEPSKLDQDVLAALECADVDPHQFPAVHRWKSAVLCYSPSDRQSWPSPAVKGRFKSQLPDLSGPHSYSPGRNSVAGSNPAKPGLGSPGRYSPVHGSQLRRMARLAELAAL
UniProt Q4G176: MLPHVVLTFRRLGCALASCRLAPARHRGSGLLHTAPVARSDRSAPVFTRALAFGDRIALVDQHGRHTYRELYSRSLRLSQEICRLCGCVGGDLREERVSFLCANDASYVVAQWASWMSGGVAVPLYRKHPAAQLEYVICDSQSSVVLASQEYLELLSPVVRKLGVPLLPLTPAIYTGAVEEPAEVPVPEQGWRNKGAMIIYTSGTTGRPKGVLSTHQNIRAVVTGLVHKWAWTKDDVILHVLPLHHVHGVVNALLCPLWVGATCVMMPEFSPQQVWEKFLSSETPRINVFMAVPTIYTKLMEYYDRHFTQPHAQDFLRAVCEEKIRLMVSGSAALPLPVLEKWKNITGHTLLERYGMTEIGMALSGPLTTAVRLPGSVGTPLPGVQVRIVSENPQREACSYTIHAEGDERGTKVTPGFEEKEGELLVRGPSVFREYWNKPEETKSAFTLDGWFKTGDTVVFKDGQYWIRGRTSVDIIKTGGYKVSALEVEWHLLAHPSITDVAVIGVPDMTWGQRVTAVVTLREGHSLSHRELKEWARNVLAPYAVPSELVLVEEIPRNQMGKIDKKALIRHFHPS
UniProt P18085: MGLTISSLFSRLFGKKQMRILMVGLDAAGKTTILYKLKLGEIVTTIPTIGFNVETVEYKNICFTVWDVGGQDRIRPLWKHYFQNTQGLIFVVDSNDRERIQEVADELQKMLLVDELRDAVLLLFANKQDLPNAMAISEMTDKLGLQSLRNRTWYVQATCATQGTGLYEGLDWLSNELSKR
UniProt Q9Y6D5: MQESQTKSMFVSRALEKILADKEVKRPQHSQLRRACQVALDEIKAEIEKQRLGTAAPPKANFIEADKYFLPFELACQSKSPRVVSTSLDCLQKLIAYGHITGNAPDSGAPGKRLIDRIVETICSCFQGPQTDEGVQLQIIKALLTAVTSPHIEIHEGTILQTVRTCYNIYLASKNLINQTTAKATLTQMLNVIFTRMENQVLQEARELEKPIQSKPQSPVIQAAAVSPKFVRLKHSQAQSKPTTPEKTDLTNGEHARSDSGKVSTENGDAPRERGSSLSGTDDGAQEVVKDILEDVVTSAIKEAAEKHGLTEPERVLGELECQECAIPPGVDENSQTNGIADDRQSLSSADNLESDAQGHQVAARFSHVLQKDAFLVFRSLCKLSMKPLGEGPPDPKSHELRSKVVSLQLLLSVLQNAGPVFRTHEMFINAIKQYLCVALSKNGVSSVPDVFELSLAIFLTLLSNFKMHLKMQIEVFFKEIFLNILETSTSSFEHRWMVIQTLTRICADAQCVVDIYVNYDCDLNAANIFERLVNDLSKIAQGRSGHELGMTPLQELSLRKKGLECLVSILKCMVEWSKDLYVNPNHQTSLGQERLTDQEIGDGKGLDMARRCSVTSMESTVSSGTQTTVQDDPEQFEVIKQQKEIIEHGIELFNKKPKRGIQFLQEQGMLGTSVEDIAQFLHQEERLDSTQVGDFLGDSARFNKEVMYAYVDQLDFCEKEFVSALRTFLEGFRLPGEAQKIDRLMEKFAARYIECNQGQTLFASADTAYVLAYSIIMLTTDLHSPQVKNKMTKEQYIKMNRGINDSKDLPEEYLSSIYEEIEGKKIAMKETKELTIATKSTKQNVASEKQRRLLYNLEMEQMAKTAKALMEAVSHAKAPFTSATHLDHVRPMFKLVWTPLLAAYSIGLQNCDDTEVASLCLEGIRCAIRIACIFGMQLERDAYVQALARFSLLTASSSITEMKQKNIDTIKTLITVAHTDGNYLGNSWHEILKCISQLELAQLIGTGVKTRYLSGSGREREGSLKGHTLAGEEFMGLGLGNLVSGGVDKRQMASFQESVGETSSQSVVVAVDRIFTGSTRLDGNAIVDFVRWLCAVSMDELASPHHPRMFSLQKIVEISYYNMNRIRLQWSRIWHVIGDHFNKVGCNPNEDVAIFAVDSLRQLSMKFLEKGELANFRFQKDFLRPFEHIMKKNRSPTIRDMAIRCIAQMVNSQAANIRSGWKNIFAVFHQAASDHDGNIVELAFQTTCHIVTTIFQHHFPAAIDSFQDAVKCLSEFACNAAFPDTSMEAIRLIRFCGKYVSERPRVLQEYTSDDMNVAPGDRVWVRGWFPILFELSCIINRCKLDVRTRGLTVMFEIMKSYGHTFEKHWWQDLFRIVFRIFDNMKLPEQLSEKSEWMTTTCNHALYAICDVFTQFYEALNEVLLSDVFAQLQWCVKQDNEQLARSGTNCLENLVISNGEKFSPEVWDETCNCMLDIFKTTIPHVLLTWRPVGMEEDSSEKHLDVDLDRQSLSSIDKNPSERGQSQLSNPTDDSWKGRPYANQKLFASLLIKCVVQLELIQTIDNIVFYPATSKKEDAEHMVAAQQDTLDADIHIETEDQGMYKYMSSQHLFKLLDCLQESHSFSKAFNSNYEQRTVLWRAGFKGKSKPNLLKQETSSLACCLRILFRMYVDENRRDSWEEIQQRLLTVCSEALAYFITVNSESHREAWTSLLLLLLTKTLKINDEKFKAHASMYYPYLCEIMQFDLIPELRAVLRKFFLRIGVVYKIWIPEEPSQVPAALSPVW

**Q.** How did the “dose-dependent thermal stabilisation call” value turn out when ACSF2 (UniProt Q96CM8) was run?
**A.** The value was inactive: 0.

**Q.** ANP32B (UniProt Q92688) was tested. Which “dose-dependent thermal stabilisation call” value did it give?
**A.** Its value is inactive: 0.

**Q.** ARID2 (UniProt Q68CP9) was tested. Which “dose-dependent thermal stabilisation call” value did it give?
**A.** The value was inactive: 0.

**Q.** With ACSS2 (UniProt Q9NR19) as the target, how does the “dose-dependent thermal stabilisation call” value read?
**A.** The value was inactive: 0.

**Q.** For ARHGAP17 (UniProt Q68EM7), which “dose-dependent thermal stabilisation call” value is on record?
**A.** Its value is inactive: 0.

**Q.** Which “dose-dependent thermal stabilisation call” value does the source give for ACTR5 (UniProt Q9H9F9) here?
**A.** Its value is inactive: 0.

**Q.** For ADAR (UniProt P55265), which “dose-dependent thermal stabilisation call” value is on record?
**A.** The value was inactive: 0.

**Q.** For ACAT1 (UniProt P24752), which “dose-dependent thermal stabilisation call” value is on record?
**A.** The value was inactive: 0.

**Q.** ANXA7 (UniProt P20073) was tested. Which “dose-dependent thermal stabilisation call” value did it give?
**A.** The value was inactive: 0.

**Q.** With ALDH1A2 (UniProt O94788) as the target, how does the “dose-dependent thermal stabilisation call” value read?
**A.** The value was inactive: 0.

**Q.** How did the “dose-dependent thermal stabilisation call” value turn out when AFF4 (UniProt Q9UHB7) was run?
**A.** Its value is inactive: 0.

**Q.** With ANKRD28 (UniProt O15084) as the target, how does the “dose-dependent thermal stabilisation call” value read?
**A.** The value was inactive: 0.

**Q.** For AKAP11 (UniProt Q9UKA4), which “dose-dependent thermal stabilisation call” value is on record?
**A.** Its value is inactive: 0.

**Q.** ADRBK1 (UniProt P25098) was tested. Which “dose-dependent thermal stabilisation call” value did it give?
**A.** Its value is inactive: 0.

**Q.** ALG5 (UniProt Q9Y673) was tested. Which “dose-dependent thermal stabilisation call” value did it give?
**A.** The value was inactive: 0.

**Q.** How did the “dose-dependent thermal stabilisation call” value turn out when ARFIP2 (UniProt P53365) was run?
**A.** Its value is inactive: 0.

**Q.** How did the “dose-dependent thermal stabilisation call” value turn out when ARL2BP (UniProt Q9Y2Y0) was run?
**A.** Its value is inactive: 0.

**Q.** For ACOT9 (UniProt Q9Y305), which “dose-dependent thermal stabilisation call” value is on record?
**A.** Its value is inactive: 0.

**Q.** With ADCK4 (UniProt Q96D53) as the target, how does the “dose-dependent thermal stabilisation call” value read?
**A.** Its value is inactive: 0.

**Q.** Which “dose-dependent thermal stabilisation call” value does the source give for ACTR6 (UniProt Q9GZN1) here?
**A.** The value was inactive: 0.

**Q.** ARL15 (UniProt Q9NXU5) was tested. Which “dose-dependent thermal stabilisation call” value did it give?
**A.** The value was inactive: 0.

**Q.** With AGTRAP (UniProt Q6RW13) as the target, how does the “dose-dependent thermal stabilisation call” value read?
**A.** The value was inactive: 0.

**Q.** How did the “dose-dependent thermal stabilisation call” value turn out when ANKLE2 (UniProt Q86XL3) was run?
**A.** The value was inactive: 0.

**Q.** Which “dose-dependent thermal stabilisation call” value does the source give for ACSF3 (UniProt Q4G176) here?
**A.** Its value is inactive: 0.

**Q.** For ARF4 (UniProt P18085), which “dose-dependent thermal stabilisation call” value is on record?
**A.** The value was inactive: 0.

**Q.** Which “dose-dependent thermal stabilisation call” value does the source give for AQR (UniProt O60306) here?
**A.** The value was inactive: 0.

**Q.** How did the “dose-dependent thermal stabilisation call” value turn out when ARFGEF2 (UniProt Q9Y6D5) was run?
**A.** Its value is inactive: 0.

From the supplement of paper PMC7666118
